In PubChem BioAssay AID226 (DTP/NCI, 2004):
The list shows only some results of the screen, not a fair sample: it gathers tests that were run many times, whatever their T/C, doses with no T/C, and many T/C values between a quarter and a half above the control. Further doses and runs are listed elsewhere. T/C gives the treated animals as a percentage of the vehicle group. Some doses have a count of surviving animals in place of a T/C: the source files T/C as zero there, which appears to mark a toxic dose or a test without result, not a measured value. Some survivor counts are full or nearly so, which does not show that the dose was tolerated: the source hardly ever lists a survival T/C far under the control, and the zero likely stands for such cases as well. Counts of survivors are from the toxicity check (mostly the fifth day) where no day follows; animals may have died later. Schedules are NCI's codes, taken here to give the interval after Q, in days (D) or hours (H), and the number of doses after X. Some entries were tested several times; the values are given in rising order. Some schedules carry Z or #; the key to these is not given. Where survival is the endpoint, the PubChem record calls one and a half times the control and up active, and a quarter to a half above the control has no call in these data; cut-offs in other NCI protocols can differ. Some T/C values carry the count of animals alive at the toxicity check (mostly the fifth day); where none is given, no animal had died by that day. Counts like (3×) stand for listed records that agree.

Tested on: B6C3F1 mice, intracerebral ependymoblastoma, median survival T/C
Assay: NCI In Vivo Anticancer Drug Screen. Data for tumor model Ependymoblastoma (intracerebral) in B6C3F1 mice
Details: T/C endpoint: median survival time, higher T/C = longer survival
Procedure: The antitumor activity of compounds was measured in mice bearing transplantable tumors. Survival or tumor size were measured and the results are expressed as the measurement made in the treated group (T) divided by the measurement made in the vehicle treated control group (C). The tumor model used in this assay is Ependymoblastoma (intracerebral) in B6C3F1 mice

[1] = dose: 0.5 mg/kg/injection, schedule: Q01DX005 (ip), vehicle: saline
[2] = dose: 1.0 mg/kg/injection, schedule: Q01DX005 (ip), vehicle: saline
[3] = dose: 2.0 mg/kg/injection, schedule: Q01DX005 (ip), vehicle: saline
[4] = dose: 4.0 mg/kg/injection, schedule: Q01DX005 (ip), vehicle: saline
[5] = dose: 8.0 mg/kg/injection, schedule: Q01DX005 (ip), vehicle: saline
[6] = dose: 16.0 mg/kg/injection, schedule: Q01DX005 (ip), vehicle: saline
[7] = dose: 512.0 mg/kg/injection, schedule: Q01DX005 (ip), vehicle: saline
[8] = dose: 96.0 mg/kg/injection, schedule: Q01DX001 (ip), vehicle: saline

Which results are given for `O=NN(CCCl)C(=O)NC1CCC(=O)NC1=O` (stereo unspecified)?
T/C [1]: 115 (2×), 117, 132 % of control; T/C (dose: 0.5 mg/kg/injection, schedule: Q01DX005 (ip), vehicle: suspension in saline): 126 % of control; T/C (dose: 0.5 mg/kg/injection, schedule: Q01DX009 (ip), vehicle: saline with Tween-80): 128 % of control [9 of 10 alive]; T/C (dose: 1.0 mg/kg/injection, schedule: Q01DX005 (ip), vehicle: saline with Tween-80): 134 % of control; T/C [2]: 118, 135, 147, 153 % of control; T/C (dose: 2.0 mg/kg/injection, schedule: Q01DX001 (ip), vehicle: saline + alcohol): 125 % of control; T/C (dose: 2.0 mg/kg/injection, schedule: Q01DX005 (ip), vehicle: Klucel (hydroxypropylcellulose) (HPC)): 127 % of control [9 of 10 alive]; T/C [3]: 157, 180, 181, 250 % of control; T/C (dose: 2.0 mg/kg/injection, schedule: Q01DX005 (ip), vehicle: suspension in saline): 128 % of control; T/C [4]: 238, 250, 294, 363 % of control; survivor count (dose: 4.0 mg/kg/injection, schedule: Q01DX009 (ip), vehicle: saline with Tween-80): 9 of 9; T/C (dose: 4.32 mg/kg/injection, schedule: Q01DX001 (ip), vehicle: Klucel (hydroxypropylcellulose) (HPC)): 144 % of control; T/C [5]: 117, 123, 184, 362 % of control; survivor count (dose: 8.0 mg/kg/injection, schedule: Q01DX009 (ip), vehicle: saline with Tween-80): 8 of 9; T/C (dose: 16.0 mg/kg/injection, schedule: Q01DX001 (ip), vehicle: suspension in saline): 134 % of control; survivor count (dose: 16.0 mg/kg/injection, schedule: Q01DX005 (ip), vehicle: Klucel (hydroxypropylcellulose) (HPC)): 7 of 10; survivor count [6]: 9 of 10 and 10 of 10; survivor count (dose: 16.0 mg/kg/injection, schedule: Q01DX005 (ip), vehicle: suspension in saline): 10 of 10; survivor count (dose: 16.0 mg/kg/injection, schedule: Q01DX009 (ip), vehicle: saline with Tween-80): 10 of 10; survivor count (dose: 20.0 mg/kg/injection, schedule: Q01DX005 (ip), vehicle: Klucel (hydroxypropylcellulose) (HPC)): 8 of 10 on day 6; survivor count (dose: 64.0 mg/kg/injection, schedule: Q01DX001 (ip), vehicle: DMSO): 8 of 10

Which results are given for `CN(CCO)/N=N/c1nc[nH]c1C(N)=O`?
T/C (dose: 128.0 mg/kg/injection, schedule: Q01DX005 (ip), vehicle: saline): 131 % of control; T/C (dose: 256.0 mg/kg/injection, schedule: Q01DX005 (ip), vehicle: saline): 143 % of control; T/C [7]: 131 % of control; survivor count [7]: 6 of 10

`C1CN1c1nc(N2CC2)nc(N2CC2)n1` was tested. Which T/C (dose: 0.5 mg/kg/injection, schedule: Q01DX005 (ip), vehicle: saline, evaluated on day 45) did it give?
Its T/C is 135 % of control.

And the T/C (dose: 0.5 mg/kg/injection, schedule: Q01DX005 (ip), vehicle: saline, evaluated on day 60)?
The T/C was 125 % of control.

What about the survivor count [3] of the same compound?
Its survivor count is 9 of 10.

With `Cn1cnc([N+](=O)[O-])c1Sc1nc(N)nc2c1ncn2C1OC(CO)C(O)C1O` (stereo unspecified) as the compound, how does the survivor count (dose: 50.0 mg/kg/injection, schedule: Q01DX005 (ip), vehicle: suspension in saline) read?
Its survivor count is 10 of 10.

What does the source list for `CCCCCCCCN(C)/N=N/c1nc[nH]c1C(N)=O`?
T/C (dose: 32.0 mg/kg/injection, schedule: Q01DX005 (ip), vehicle: saline with Tween-80): 139 % of control; T/C (dose: 64.0 mg/kg/injection, schedule: Q01DX005 (ip), vehicle: saline with Tween-80): 141 % of control; T/C (dose: 256.0 mg/kg/injection, schedule: Q01DX005 (ip), vehicle: saline with Tween-80): 142 % of control [9 of 10 alive]

What does the source list for `CC[n+]1c(-c2ccccc2)c2cc(N)ccc2c2ccc(N)cc21`?
T/C (dose: 24.0 mg/kg/injection, schedule: Q01DX001 (ip), vehicle: saline): 92 [survivors not given], 105 [survivors not given], 107, 110 % of control [survivors not given]; T/C (dose: 48.0 mg/kg/injection, schedule: Q01DX001 (ip), vehicle: saline): 95 [survivors not given], 100 [9 of 10 alive], 101 [survivors not given], 110 % of control [survivors not given]; T/C [8]: 98 % of control [survivors not given]; survivor count [8]: 8 of 10; survivor count (dose: 192.0 mg/kg/injection, schedule: Q01DX001 (ip), vehicle: saline): 0 of 10

How did the survivor count (dose: 16.0 mg/kg/injection, schedule: Q01DX005 (ip), vehicle: distilled water + Tween-80) turn out when `COc1cc2c(cc1O)N=C[C@@H]1CCC(O)N1C2=O` (mixture of isomers) was run?
The survivor count was 0 of 10.

Which T/C [1] does the source give for `OC(C1CO1)C(O)C1CO1` (stereo unspecified) here?
The T/C was 95 [9 of 10 alive], 100, 109 (2×), 110, 113, 117 % of control.

What about the T/C [2] of the same compound?
The T/C was 98 [9 of 10 alive], 108, 110, 111, 118, 119, 122 % of control.

What about the T/C (dose: 2.0 mg/kg/injection, schedule: Q01DX001 (ip), vehicle: saline) of the same compound?
Its T/C is 143 % of control.

And the T/C [3]?
Its T/C is 113, 116, 118 [9 of 10 alive], 124, 130, 137, 158 % of control.

And the T/C (dose: 2.0 mg/kg/injection, schedule: Q01DX005 (oral), vehicle: water)?
The T/C was 135 % of control [9 of 10 alive].

What about the T/C (dose: 4.0 mg/kg/injection, schedule: Q01DX001 (ip), vehicle: saline) of the same compound?
The T/C was 132 % of control.

What about the T/C (dose: 4.0 mg/kg/injection, schedule: Q01DX001 (ip), vehicle: water) of the same compound?
Its T/C is 128 % of control.

What about the T/C [4] of the same compound?
Its T/C is 141 [8 of 10 alive], 143, 147, 158, 161, 171 % of control.

What about the survivor count [4] of the same compound?
Its survivor count is 8 of 10.

And the survivor count (dose: 4.0 mg/kg/injection, schedule: Q01DX005 (oral), vehicle: water)?
Its survivor count is 10 of 10.

What about the T/C (dose: 4.0 mg/kg/injection, schedule: Q#A X002 (ip), vehicle: water) of the same compound?
The T/C was 131 % of control.

And the T/C (dose: 8.0 mg/kg/injection, schedule: Q01DX001 (ip), vehicle: saline)?
The T/C was 148 % of control.

And the T/C (dose: 8.0 mg/kg/injection, schedule: Q01DX001 (ip), vehicle: water)?
Its T/C is 129 and 142 % of control.

What about the survivor count [5] of the same compound?
Its survivor count is 10 of 10.

What about the survivor count (dose: 8.0 mg/kg/injection, schedule: Q01DX005 (ip), vehicle: water) of the same compound?
The survivor count was 10 of 10.

What about the survivor count (dose: 8.0 mg/kg/injection, schedule: Q01DX005 (oral), vehicle: water) of the same compound?
The survivor count was 9 of 10.

And the survivor count (dose: 16.0 mg/kg/injection, schedule: Q01DX001 (ip), vehicle: water)?
The survivor count was 7 of 10 and 10 of 10.

And the survivor count [6]?
Its survivor count is 3 of 10, 4 of 10, 6 of 10, 9 of 10, 10 of 10.

And the survivor count (dose: 16.0 mg/kg/injection, schedule: Q01DX005 (oral), vehicle: water)?
The survivor count was 2 of 10.

What about the survivor count (dose: 16.0 mg/kg/injection, schedule: Q#A X002 (ip), vehicle: water) of the same compound?
Its survivor count is 1 of 10.

What about the survivor count (dose: 32.0 mg/kg/injection, schedule: Q01DX001 (ip), vehicle: saline) of the same compound?
Its survivor count is 0 of 5 and 5 of 5.

What about the survivor count (dose: 32.0 mg/kg/injection, schedule: Q01DX001 (ip), vehicle: water) of the same compound?
The survivor count was 6 of 10 and 10 of 10.

And the survivor count (dose: 32.0 mg/kg/injection, schedule: Q01DX005 (oral), vehicle: water)?
Its survivor count is 4 of 10.

And the survivor count (dose: 64.0 mg/kg/injection, schedule: Q01DX001 (ip), vehicle: saline)?
Its survivor count is 0 of 5.

Which results are given for `O=NN(CCF)C(=O)NC1CCCCC1`?
survivor count (dose: 40.0 mg/kg/injection, schedule: Q01DX005 (ip), vehicle: Klucel (hydroxypropylcellulose) (HPC)): 7 of 10 on day 6; survivor count (dose: 162.8 mg/kg/injection, schedule: Q01DX001 (ip), vehicle: other): 8 of 10

What does the source list for `O=P(NC12CC3CC(CC(C3)C1)C2)(N1CC1)N1CC1`?
T/C (dose: 9.0 mg/kg/injection, schedule: Q01DX005 (ip), vehicle: Klucel (hydroxypropylcellulose) (HPC)): 125 % of control; T/C (dose: 18.0 mg/kg/injection, schedule: Q01DX005 (ip), vehicle: Klucel (hydroxypropylcellulose) (HPC)): 125 % of control
